The values that follow come from article PMC7713045.

The target in this assay is wild type T. thermophilus GroEL expressed in E. coli cells (T. thermophilus) (UniProt Q5SLM2). Description: SEC; data not shown; distribution compared with that of Met-less GroEL on Sephacryl S-400.

No constants are given. Whether binding was seen depends on the method and setting. Some entries that bind do so weakly or less than the wild type.

B1: wild type T. thermophilus GroEL expressed in E. coli cells (protein, UniProt Q5SLM2 1-543)
chain: MAKILVFDEAARRALERGVNAVANAVKVTLGPRGRNVVLEKKFGSPTITKDGVTVAKEVELEDHLENIGAQLLKEVASKTNDVAGDGTTTATVLAQAIVREGLKNVAAGANPLALKRGIEKAVEAAVEKIKALAIPVEDRKAIEEVATISANDPEVGKLIADAMEKVGKEGIITVEESKSLETELKFVEGYQFDKGYISPYFVTNPETMEAVLEDAFILIVEKKVSNVRELLPILEQVAQTGKPLLIIAEDVEGEALATLVVNKLRGTLSVAAVKAPGFGDRRKEMLKDIAAVTGGTVISEELGFKLENATLSMLGRAERVRITKDETTIVGGKGKKEDIEARINGIKKELETTDSEYAREKLQERLAKLAGGVAVIRVGAATETELKEKKHRFEDALNATRAAVEEGIVPGGGVTLLRAISAVEELIKKLEGDEATGAKIVRRALEEPARQIAENAGYEGSVIVQQILAETKNPRYGFNAATGEFVDMVEAGIVDPAKVTRSALQNAASIGALILTTEAVVAEKPEKKESTPASAGAGDMDF
For the molecule B1, the binding entry is on record as “binds”.
